Test results reported in article PMC4532856 (Nature Communications, 2015).

What was measured:
[1] = tested on: H89C/H372C mutant GCGR and wild-type GCGR; assay: Differential HDX: apo H89C/H372C mutant GCGR vs peptide antagonist-bound wild-type GCGR; settings: peptide ligand-bound wild-type GCGR vs apo H89C/H372C mutant GCGR
GCGR = assay: Hydrogen/deuterium exchange (HDX) of ligand-bound wild-type GCGR
full-length GCGR = assay: Electron microscopy of full-length GCGR-mAb23 Fab complex
[2] = ligand-bound GCGR, D2O buffer, 4 °C, quench pH 2.4, pepsin digestion, LTQ Orbitrap MS, mean ± s.d. of three independent experiments

| Molecule | HDX change, ECD N-term and TM1 stalk [1] | HDX change, ECL1 [1] | HDX at 10 s, ECD, FLFEKWKL (31–38) (GCGR; [2]) [%] | HDX at 10 s, ECL1, LRTRYSQKIGDDL (198–210) (GCGR; [2]) [%] | HDX at 10 s, ECL3, FVTDEHAQGTLRSAKL (367–382) (GCGR; [2]) [%] | HDX at 10 s, ICL2, ATLPERSF (256–263) (GCGR; [2]) [%] | HDX at 10 s, Stalk, IEVQKEVAKM (128–137) (GCGR; [2]) [%] | HDX at 10 s, TM6, AKSTLTL (348–354) (GCGR; [2]) [%] | HDX protection of ECD αA-helix (F31-L38), TM1 stalk (I128-M137) and ECL1 (L198-L210) (GCGR; peptide-bound compared with small molecule (NNC2648)-bound GCGR, 10 s) | receptor conformation stabilized (full-length GCGR; EM model) | GCGR domain interaction in EM map (full-length GCGR; negative stain EM) |
| --- | --- | --- | --- | --- | --- | --- | --- | --- | --- | --- | --- |
| des-His^1-[Nle^9-Ala^11-Ala^16]-glucagon-NH2 | large decreased exchange | smaller decreased exchange | 3.8±5.4 | 27.2±2.2 | 36.3±2.5 | 56.3±3.3 | 6.5±6.2 | 3.2±2.9 | increased protection (decreased exchange at 10 s) | – | – |
| mAb23: monoclonal antibody that interacts with the ECD of GCGR; Fab kindly provided by Genentech (antibody, V domains shown) VH: EVQLVESGGGLVQPGGSLRLSCAASGFNIYYNYIHWVRQAPGKGLEWVAEFSPYSGSTYYADSVKGRFTISADTSKNTAYLQMNSLRAEDTAVYYCARSAAIVDWYDYFKGFDYWGQGTLVTVSS VL: DIQMTQSPSSLSASVGDRVTITCRASQSVSSAVAWYQQKPGKAPKLLIYSASSLYSGVPSRFSGSRSGTDFTLTISSLQPEDFATYYCQQYGSYLYTFGQGTKVEIK | – | – | – | – | – | – | – | – | – | stabilizes GCGR in an open conformation | interacts with the ECD, but does not interact with the 7TM domain of GCGR |
